The source of these data is the supplement of paper PMC12595434, “Development of retinoid nuclear receptor pathway antagonists through targeting aldehyde dehydrogenase 1A3” (iScience, 2025).

Sequences of proteins named here, by UniProt entry; tags and fusion partners are left off. A change or cut given only in a name is not applied to a line headed by its entry.
UniProt Q14432: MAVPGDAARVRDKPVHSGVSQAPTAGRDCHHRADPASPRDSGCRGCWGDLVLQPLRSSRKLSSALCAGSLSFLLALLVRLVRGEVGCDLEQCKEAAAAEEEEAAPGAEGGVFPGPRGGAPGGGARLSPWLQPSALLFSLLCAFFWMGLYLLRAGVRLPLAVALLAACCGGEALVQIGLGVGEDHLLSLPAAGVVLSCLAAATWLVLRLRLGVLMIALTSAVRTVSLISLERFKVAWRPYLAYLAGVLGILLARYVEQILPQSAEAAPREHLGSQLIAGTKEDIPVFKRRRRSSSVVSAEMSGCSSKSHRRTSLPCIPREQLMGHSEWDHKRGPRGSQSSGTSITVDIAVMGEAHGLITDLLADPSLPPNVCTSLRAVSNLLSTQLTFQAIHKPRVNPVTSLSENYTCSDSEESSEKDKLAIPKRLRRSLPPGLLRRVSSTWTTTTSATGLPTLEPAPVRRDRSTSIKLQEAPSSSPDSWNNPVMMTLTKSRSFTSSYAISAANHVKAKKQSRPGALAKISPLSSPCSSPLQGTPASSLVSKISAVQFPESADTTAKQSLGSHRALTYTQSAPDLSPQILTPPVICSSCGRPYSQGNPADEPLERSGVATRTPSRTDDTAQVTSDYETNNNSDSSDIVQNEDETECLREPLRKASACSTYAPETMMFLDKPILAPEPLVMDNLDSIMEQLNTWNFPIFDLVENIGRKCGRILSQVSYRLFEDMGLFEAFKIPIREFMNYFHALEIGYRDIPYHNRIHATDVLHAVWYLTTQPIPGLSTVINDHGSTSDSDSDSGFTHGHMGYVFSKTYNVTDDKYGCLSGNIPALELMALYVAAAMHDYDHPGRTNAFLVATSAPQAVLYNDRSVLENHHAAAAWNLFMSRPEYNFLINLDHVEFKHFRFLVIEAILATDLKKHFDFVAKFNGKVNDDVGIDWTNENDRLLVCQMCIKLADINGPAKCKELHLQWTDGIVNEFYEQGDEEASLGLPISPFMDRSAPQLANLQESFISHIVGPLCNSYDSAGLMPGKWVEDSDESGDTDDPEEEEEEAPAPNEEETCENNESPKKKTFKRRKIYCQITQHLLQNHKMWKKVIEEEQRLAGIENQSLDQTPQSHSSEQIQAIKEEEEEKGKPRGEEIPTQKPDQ
UniProt Q13287: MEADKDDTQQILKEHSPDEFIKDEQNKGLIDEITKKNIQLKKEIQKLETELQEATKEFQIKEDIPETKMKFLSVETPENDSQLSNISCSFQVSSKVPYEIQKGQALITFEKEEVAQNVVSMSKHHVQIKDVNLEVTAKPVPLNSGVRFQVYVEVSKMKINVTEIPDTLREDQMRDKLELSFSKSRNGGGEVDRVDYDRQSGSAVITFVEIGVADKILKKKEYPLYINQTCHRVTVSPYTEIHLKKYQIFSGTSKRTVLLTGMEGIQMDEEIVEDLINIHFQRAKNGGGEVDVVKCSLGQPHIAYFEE
UniProt Q13190: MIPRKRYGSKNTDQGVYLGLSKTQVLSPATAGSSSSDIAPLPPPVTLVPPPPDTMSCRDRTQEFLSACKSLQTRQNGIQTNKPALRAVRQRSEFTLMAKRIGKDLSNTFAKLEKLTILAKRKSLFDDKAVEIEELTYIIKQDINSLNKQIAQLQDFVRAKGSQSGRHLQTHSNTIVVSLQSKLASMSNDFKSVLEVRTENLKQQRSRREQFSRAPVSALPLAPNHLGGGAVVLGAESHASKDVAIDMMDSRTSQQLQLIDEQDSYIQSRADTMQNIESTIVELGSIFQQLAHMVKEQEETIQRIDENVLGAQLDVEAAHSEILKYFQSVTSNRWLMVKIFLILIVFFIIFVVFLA
UniProt Q13563: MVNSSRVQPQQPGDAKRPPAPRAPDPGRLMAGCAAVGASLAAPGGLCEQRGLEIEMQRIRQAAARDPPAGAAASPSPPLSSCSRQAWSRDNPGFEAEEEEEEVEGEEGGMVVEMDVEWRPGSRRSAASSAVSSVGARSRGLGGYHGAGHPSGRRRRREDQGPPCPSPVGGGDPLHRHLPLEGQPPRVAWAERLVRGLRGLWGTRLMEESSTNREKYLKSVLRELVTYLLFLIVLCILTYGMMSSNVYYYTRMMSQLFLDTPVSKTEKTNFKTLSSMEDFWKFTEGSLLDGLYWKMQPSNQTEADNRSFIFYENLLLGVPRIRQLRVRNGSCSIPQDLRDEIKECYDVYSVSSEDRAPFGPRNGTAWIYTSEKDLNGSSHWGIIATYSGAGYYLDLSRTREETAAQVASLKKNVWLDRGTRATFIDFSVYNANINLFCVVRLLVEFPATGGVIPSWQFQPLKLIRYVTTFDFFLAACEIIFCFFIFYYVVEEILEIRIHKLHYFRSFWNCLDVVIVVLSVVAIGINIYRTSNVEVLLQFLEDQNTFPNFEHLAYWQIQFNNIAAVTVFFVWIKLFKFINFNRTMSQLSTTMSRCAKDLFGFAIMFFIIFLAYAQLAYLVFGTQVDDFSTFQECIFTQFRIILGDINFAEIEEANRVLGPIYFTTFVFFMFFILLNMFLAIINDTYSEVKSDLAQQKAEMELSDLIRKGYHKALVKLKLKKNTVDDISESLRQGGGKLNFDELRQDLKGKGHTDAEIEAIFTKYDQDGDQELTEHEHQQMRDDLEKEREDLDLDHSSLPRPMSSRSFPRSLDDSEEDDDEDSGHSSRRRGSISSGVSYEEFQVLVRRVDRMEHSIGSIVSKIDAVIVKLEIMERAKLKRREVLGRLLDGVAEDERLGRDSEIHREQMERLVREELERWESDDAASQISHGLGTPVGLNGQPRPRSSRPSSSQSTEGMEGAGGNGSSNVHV
UniProt Q14697: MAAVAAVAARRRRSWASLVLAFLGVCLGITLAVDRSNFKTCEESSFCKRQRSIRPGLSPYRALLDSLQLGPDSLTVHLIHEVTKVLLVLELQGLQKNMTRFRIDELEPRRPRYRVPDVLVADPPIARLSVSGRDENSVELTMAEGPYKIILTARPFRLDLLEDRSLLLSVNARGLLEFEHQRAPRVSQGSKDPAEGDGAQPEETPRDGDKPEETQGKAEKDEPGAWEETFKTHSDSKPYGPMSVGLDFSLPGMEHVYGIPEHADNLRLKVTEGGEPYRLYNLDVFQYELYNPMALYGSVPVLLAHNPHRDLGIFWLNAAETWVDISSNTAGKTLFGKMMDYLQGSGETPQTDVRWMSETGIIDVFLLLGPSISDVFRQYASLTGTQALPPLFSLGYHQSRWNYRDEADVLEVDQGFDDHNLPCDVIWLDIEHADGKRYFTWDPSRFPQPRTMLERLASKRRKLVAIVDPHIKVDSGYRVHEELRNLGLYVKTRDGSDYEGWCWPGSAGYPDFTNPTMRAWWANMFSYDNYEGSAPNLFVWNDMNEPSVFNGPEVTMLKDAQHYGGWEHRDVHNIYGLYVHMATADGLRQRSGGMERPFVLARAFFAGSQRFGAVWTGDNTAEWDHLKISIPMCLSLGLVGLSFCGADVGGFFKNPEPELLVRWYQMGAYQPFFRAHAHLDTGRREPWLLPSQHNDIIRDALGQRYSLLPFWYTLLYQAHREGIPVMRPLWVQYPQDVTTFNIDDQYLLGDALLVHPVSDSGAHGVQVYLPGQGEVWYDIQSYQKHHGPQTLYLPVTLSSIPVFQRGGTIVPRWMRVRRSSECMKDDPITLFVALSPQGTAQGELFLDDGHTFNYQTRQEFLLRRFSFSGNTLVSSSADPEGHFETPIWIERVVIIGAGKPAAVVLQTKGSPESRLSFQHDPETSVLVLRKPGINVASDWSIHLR
UniProt Q15022: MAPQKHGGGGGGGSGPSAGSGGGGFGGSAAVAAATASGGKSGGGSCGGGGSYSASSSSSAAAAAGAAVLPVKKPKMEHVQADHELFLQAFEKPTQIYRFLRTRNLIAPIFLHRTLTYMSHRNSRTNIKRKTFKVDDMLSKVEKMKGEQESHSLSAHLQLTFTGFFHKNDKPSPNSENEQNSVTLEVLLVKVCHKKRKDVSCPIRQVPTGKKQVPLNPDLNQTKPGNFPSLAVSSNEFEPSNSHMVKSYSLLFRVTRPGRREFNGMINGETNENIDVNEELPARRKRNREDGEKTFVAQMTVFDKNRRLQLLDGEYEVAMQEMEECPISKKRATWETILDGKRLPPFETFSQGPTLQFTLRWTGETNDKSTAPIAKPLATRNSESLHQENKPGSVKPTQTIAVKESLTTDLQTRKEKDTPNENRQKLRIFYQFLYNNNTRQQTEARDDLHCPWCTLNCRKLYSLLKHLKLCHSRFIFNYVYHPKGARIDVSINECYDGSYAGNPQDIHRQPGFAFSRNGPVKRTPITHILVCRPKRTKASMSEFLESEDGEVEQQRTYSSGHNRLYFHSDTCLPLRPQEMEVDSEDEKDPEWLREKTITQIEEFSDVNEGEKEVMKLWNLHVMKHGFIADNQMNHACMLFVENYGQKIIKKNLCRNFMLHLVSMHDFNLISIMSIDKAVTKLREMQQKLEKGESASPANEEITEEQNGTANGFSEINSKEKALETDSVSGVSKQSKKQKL
UniProt Q13530: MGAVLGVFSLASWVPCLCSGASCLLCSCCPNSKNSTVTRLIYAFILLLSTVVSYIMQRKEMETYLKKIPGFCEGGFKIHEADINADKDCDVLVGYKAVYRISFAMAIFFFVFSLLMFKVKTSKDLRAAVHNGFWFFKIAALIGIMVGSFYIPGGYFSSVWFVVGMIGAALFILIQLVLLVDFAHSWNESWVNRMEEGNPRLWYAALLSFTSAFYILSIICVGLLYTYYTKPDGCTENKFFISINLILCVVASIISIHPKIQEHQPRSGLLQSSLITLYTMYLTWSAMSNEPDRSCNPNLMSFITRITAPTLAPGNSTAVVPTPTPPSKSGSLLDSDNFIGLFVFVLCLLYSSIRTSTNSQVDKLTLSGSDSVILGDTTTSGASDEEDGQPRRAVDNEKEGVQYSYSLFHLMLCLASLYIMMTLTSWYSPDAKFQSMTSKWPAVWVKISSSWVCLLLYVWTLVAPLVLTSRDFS
UniProt Q13243: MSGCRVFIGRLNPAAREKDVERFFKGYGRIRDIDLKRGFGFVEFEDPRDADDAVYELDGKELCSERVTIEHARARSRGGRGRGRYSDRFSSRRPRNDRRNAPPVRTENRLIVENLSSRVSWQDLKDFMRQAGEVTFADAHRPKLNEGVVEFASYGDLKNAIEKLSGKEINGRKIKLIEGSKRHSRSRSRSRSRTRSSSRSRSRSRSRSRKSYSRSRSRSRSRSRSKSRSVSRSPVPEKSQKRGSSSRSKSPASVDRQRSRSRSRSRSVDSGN
UniProt Q13895: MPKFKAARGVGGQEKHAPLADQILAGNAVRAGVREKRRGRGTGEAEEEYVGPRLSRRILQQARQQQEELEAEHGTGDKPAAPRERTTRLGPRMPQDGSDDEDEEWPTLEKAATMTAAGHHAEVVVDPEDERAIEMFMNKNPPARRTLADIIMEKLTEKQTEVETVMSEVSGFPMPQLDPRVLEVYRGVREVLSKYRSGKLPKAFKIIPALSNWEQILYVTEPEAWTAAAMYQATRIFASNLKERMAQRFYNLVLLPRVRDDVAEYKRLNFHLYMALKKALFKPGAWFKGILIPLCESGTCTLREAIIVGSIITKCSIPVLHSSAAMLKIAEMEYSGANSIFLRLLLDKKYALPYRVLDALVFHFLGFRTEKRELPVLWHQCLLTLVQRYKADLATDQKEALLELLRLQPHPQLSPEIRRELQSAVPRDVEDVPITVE
UniProt Q13185: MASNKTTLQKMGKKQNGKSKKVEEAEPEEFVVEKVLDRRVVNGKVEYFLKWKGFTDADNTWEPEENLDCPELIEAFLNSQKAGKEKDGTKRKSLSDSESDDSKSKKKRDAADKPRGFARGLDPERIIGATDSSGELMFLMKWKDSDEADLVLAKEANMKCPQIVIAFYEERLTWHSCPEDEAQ
UniProt Q13619, whole entry: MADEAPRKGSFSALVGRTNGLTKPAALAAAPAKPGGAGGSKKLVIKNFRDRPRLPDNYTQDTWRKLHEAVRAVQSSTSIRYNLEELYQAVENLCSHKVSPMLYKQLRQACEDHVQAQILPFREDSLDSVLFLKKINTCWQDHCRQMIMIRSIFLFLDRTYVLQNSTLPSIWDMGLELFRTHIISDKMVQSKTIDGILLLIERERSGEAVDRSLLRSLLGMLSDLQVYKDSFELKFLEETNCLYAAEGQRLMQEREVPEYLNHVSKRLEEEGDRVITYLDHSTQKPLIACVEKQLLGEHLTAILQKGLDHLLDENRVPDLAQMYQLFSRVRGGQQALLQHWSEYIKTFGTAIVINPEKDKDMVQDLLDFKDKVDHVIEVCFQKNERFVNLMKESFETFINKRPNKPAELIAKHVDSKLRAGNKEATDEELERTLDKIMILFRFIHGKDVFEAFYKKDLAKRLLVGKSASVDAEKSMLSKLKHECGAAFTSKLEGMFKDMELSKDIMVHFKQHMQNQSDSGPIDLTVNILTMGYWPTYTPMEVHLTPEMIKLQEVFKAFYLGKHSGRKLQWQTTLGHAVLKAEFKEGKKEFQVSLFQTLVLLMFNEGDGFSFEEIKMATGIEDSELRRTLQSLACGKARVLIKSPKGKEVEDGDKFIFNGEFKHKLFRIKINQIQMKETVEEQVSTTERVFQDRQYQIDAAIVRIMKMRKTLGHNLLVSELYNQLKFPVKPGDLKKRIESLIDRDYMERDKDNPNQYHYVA

The other results are listed elsewhere or left out. The data scatter; read single values as rough.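 Tm was set to 64 °C where no melting was found, and many curves are irregular.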

Compound in this experiment: CCc1cnccc1C(=O)Nc1cc2c(cc1F)NC(=O)CC2
Briefly: melting temperature shift (DMSO Tm minus MBE1-treated Tm) in cellular thermal proteome profiling; higher = less thermal stabilization by MBE1 (negative = stabilized by MBE1). Particulars: A375.

With GNL2 (UniProt Q13823), the melting temperature shift was -0.698 °C (MBE1 concentration: 100 nM) and -0.218 °C (MBE1 concentration: 1 uM).

For PDE3A (UniProt Q14432), the melting temperature shift was -0.701 °C (MBE1 concentration: 100 nM) and -1.58 °C (MBE1 concentration: 1 uM).

Regarding UBAP2L (UniProt Q14157), the melting temperature shift by setting is: (MBE1 concentration: 100 nM) -2.45 °C; (MBE1 concentration: 1 uM) -2.16 °C.

With NMI (UniProt Q13287), the melting temperature shift is -0.159 °C (MBE1 concentration: 100 nM) and -0.33 °C (MBE1 concentration: 1 uM).

For the target CUL2 (UniProt Q13617), the melting temperature shift (MBE1 concentration: 100 nM) is -0.49 °C and the melting temperature shift (MBE1 concentration: 1 uM) came to 0.208 °C.

For the target STX5 (UniProt Q13190), the melting temperature shift runs as follows: (MBE1 concentration: 100 nM) -0.278 °C; (MBE1 concentration: 1 uM) -0.437 °C.

For UniProt Q14156, the melting temperature shift by setting is: (MBE1 concentration: 100 nM) -0.055 °C; (MBE1 concentration: 1 uM) 0.195 °C.

Turning to HNRNPA0 (UniProt Q13151), the melting temperature shift by setting is: (MBE1 concentration: 100 nM) -0.314 °C; (MBE1 concentration: 1 uM) -0.628 °C.

UniProt Q13099: the melting temperature shift is -1.67 °C (MBE1 concentration: 100 nM) and -0.677 °C (MBE1 concentration: 1 uM).

Turning to EIF2B1 (UniProt Q14232), the melting temperature shift is, setting by setting: (MBE1 concentration: 100 nM) -1.44 °C; (MBE1 concentration: 1 uM) 0.336 °C.

Turning to PKD2 (UniProt Q13563), the melting temperature shift runs as follows: (MBE1 concentration: 100 nM) -0.904 °C; (MBE1 concentration: 1 uM) -0.25 °C.

On to COG2 (UniProt Q14746), for which the melting temperature shift by setting is: (MBE1 concentration: 100 nM) 0.546 °C; (MBE1 concentration: 1 uM) 0.122 °C.

In the case of PAK1 (UniProt Q13153), the melting temperature shift is -1.4 °C (MBE1 concentration: 100 nM) and 0.55 °C (MBE1 concentration: 1 uM).

As to SNX17 (UniProt Q15036), the melting temperature shift runs as follows: (MBE1 concentration: 100 nM) -1.25 °C; (MBE1 concentration: 1 uM) -0.696 °C.

Regarding GANAB (UniProt Q14697), the melting temperature shift reads like this: (MBE1 concentration: 100 nM) -1.02 °C; (MBE1 concentration: 1 uM) -0.228 °C.

As to IDI1 (UniProt Q13907), the melting temperature shift is -1.05 °C (MBE1 concentration: 100 nM) and 1.23 °C (MBE1 concentration: 1 uM).

As for SETDB1 (UniProt Q15047), the melting temperature shift is, setting by setting: (MBE1 concentration: 100 nM) -0.334 °C; (MBE1 concentration: 1 uM) -0.433 °C.

Consider SUZ12 (UniProt Q15022), for which the melting temperature shift was determined as 0.154 °C (MBE1 concentration: 100 nM) and 0.416 °C (MBE1 concentration: 1 uM).

SERINC3 (UniProt Q13530): the melting temperature shift is -3.03 °C (MBE1 concentration: 100 nM) and -4.9 °C (MBE1 concentration: 1 uM).

CALCOCO2 (UniProt Q13137): the melting temperature shift (MBE1 concentration: 100 nM) was -0.475 °C and the melting temperature shift (MBE1 concentration: 1 uM) amounted to 0.501 °C.

UniProt Q14938: the melting temperature shift is, setting by setting: (MBE1 concentration: 100 nM) 0.148 °C; (MBE1 concentration: 1 uM) 1.31 °C.

As for MTX1 (UniProt Q13505), the melting temperature shift (MBE1 concentration: 100 nM) was -0.516 °C and the melting temperature shift (MBE1 concentration: 1 uM) was found to be 0.202 °C.

With CASP8 (UniProt Q14790), the melting temperature shift was -0.593 °C (MBE1 concentration: 100 nM) and -0.819 °C (MBE1 concentration: 1 uM).

Regarding UniProt Q14194, the melting temperature shift is -1.68 °C (MBE1 concentration: 100 nM) and -3.22 °C (MBE1 concentration: 1 uM).

Regarding SQSTM1 (UniProt Q13501), the melting temperature shift was determined as 0.867 °C (MBE1 concentration: 100 nM) and 0.458 °C (MBE1 concentration: 1 uM).

For the target BMS1 (UniProt Q14692), the melting temperature shift runs as follows: (MBE1 concentration: 100 nM) 0.214 °C; (MBE1 concentration: 1 uM) 0.721 °C.

With SRSF5 (UniProt Q13243), the melting temperature shift was -1.46 °C (MBE1 concentration: 100 nM) and -1.69 °C (MBE1 concentration: 1 uM).

With ITPR2 (UniProt Q14571), the melting temperature shift reads like this: (MBE1 concentration: 100 nM) -0.579 °C; (MBE1 concentration: 1 uM) -0.522 °C.

Take UniProt Q13367: the melting temperature shift by setting is: (MBE1 concentration: 100 nM) 0.629 °C; (MBE1 concentration: 1 uM) 0.183 °C.

As for RAB31 (UniProt Q13636), the melting temperature shift is -1.01 °C (MBE1 concentration: 100 nM) and -2.24 °C (MBE1 concentration: 1 uM).

For the target BYSL (UniProt Q13895), the melting temperature shift is, setting by setting: (MBE1 concentration: 100 nM) -0.616 °C; (MBE1 concentration: 1 uM) -0.598 °C.

For the target GAMT (UniProt Q14353), the melting temperature shift turned out to be 0.311 °C (MBE1 concentration: 100 nM) and 0.702 °C (MBE1 concentration: 1 uM).

Regarding PLD1 (UniProt Q13393), the melting temperature shift by setting is: (MBE1 concentration: 100 nM) -2.25 °C; (MBE1 concentration: 1 uM) -0.567 °C.

For TOP3A (UniProt Q13472), the melting temperature shift by setting is: (MBE1 concentration: 100 nM) 5.51 °C; (MBE1 concentration: 1 uM) 0.718 °C.

For UniProt Q13761, the melting temperature shift (MBE1 concentration: 100 nM) was -0.852 °C and the melting temperature shift (MBE1 concentration: 1 uM) was -2 °C.

Consider UniProt Q14CW9, for which the melting temperature shift reads like this: (MBE1 concentration: 100 nM) -2.84 °C; (MBE1 concentration: 1 uM) -0.474 °C.

Take MCM6 (UniProt Q14566): the melting temperature shift was 0.232 °C (MBE1 concentration: 100 nM) and 0.434 °C (MBE1 concentration: 1 uM).

For ICT1 (UniProt Q14197), the melting temperature shift by setting is: (MBE1 concentration: 100 nM) -0.507 °C; (MBE1 concentration: 1 uM) 0.537 °C.

UniProt Q13948: the melting temperature shift is -0.0916 °C (MBE1 concentration: 100 nM) and 0.336 °C (MBE1 concentration: 1 uM).

In the case of RAB3GAP1 (UniProt Q15042), the melting temperature shift was -0.452 °C (MBE1 concentration: 100 nM) and -0.499 °C (MBE1 concentration: 1 uM).

Turning to RIN1 (UniProt Q13671), the melting temperature shift was -0.184 °C (MBE1 concentration: 100 nM) and -0.327 °C (MBE1 concentration: 1 uM).

For the target MELK (UniProt Q14680), the melting temperature shift (MBE1 concentration: 100 nM) is -1.59 °C and the melting temperature shift (MBE1 concentration: 1 uM) was -0.703 °C.

Regarding UniProt Q14964, the melting temperature shift (MBE1 concentration: 100 nM) worked out at 0.215 °C and the melting temperature shift (MBE1 concentration: 1 uM) was -0.355 °C.

For MRPL28 (UniProt Q13084), the melting temperature shift is -1.93 °C (MBE1 concentration: 100 nM) and -2.34 °C (MBE1 concentration: 1 uM).

Turning to CBX3 (UniProt Q13185), the melting temperature shift by setting is: (MBE1 concentration: 100 nM) 0.25 °C; (MBE1 concentration: 1 uM) -0.244 °C.

In the case of OS9 (UniProt Q13438), the melting temperature shift is -2.08 °C (MBE1 concentration: 100 nM) and 0.865 °C (MBE1 concentration: 1 uM).

Turning to LARS2 (UniProt Q15031), the melting temperature shift runs as follows: (MBE1 concentration: 100 nM) 0.104 °C; (MBE1 concentration: 1 uM) -0.195 °C.

As for ORC2 (UniProt Q13416), the melting temperature shift is -0.237 °C (MBE1 concentration: 100 nM) and -0.519 °C (MBE1 concentration: 1 uM).

CUL4A (UniProt Q13619): the melting temperature shift (MBE1 concentration: 100 nM) was found to be 0.995 °C and the melting temperature shift (MBE1 concentration: 1 uM) was determined as 0.659 °C.

For the target XRCC4 (UniProt Q13426), the melting temperature shift by setting is: (MBE1 concentration: 100 nM) -2.26 °C; (MBE1 concentration: 1 uM) -4.79 °C.

As to DIP2A (UniProt Q14689), the melting temperature shift is, setting by setting: (MBE1 concentration: 100 nM) -1.15 °C; (MBE1 concentration: 1 uM) 0.44 °C.
